Data as given in PubChem BioAssay AID1259308 (NCATS, 2017)

Screen: 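Genes whose loss raises luciferase production in HEK293 cells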 (primary screen)
Cell system: human HEK293 embryonic kidney cells stably expressing firefly luciferase (HEK-CMV-Luc2-Hygro)
Reagents: single siRNA against human genes, 0.8 pmol siRNA per well
Time to read-out: 72 h
Detection: 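Reporter luminescence and viable-cell signal on separate replicate plates, given as percent of non-targeting control and median/MAD z-scores, plus per-cell luciferase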
Direction: total luciferase, z-score and total luciferase, % of control: higher = more reporter protein produced; luciferase per cell, z-score: higher = more reporter output per viable cell; viable cells, % of control: higher = more viable cells
Active means: 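Active when the median/MAD z-score for overall luciferase is greater than 3; a gene was taken forward for validation with new siRNAs if at least two of its three siRNAs passed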
Meaning of the calls: active = raised luciferase; inactive = no rise
The deposit covers about 59,000 reagents; shown is an unselected part. About 1,510 of them (2.6%) were called active. 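Calls use total luciferase alone and ignore viability, so some active siRNAs may act by altering cell number.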 A number with no mark means an inactive call. The numbers tell different reagents against one gene apart.

| target | reagent | total luciferase, z-score | total luciferase, % of control | luciferase per cell, z-score | viable cells, % of control |
| --- | --- | --- | --- | --- | --- |
| SHOX (GeneID 6473) | 1 | -0.409 | 73.7 | -0.84 | 103 |
| SHOX (GeneID 6473) | 2 | -1 | 62 | -0.987 | 89.8 |
| SHOX (GeneID 6473) | 3 | -1.38 | 54.5 | -0.0668 | 62 |
| CX3CR1 (GeneID 1524) | 1 | -0.334 | 75.2 | -0.4 | 93.4 |
| CX3CR1 (GeneID 1524) | 2 | 0.885 | 99.5 | 1.03 | 84.7 |
| CX3CR1 (GeneID 1524) | 3 | 2.79 | 137 | 1.56 | 102 |
| TIGD4 (GeneID 201798) | 1 | 2.01 | 122 | 1.37 | 94.9 |
| TIGD4 (GeneID 201798) | 2 | 1.09 | 104 | 1.81 | 71.8 |
| TIGD4 (GeneID 201798) | 3 | -0.505 | 71.8 | -1.25 | 112 |
| STAC3 (GeneID 246329) | 1 | 0.53 | 92.4 | 0.879 | 82 |
| STAC3 (GeneID 246329) | 2 | 1.6 | 114 | 1.56 | 84.4 |
| STAC3 (GeneID 246329) | 3 | -1.47 | 52.7 | -0.423 | 65.8 |
| CPA1 (GeneID 1357) | 1 | 0.0289 | 82.5 | -0.378 | 102 |
| CPA1 (GeneID 1357) | 2 | -0.889 | 64.2 | -1.56 | 108 |
| CPA1 (GeneID 1357) | 3 | 0.574 | 93.3 | 0.222 | 98.4 |
| ETF1 (GeneID 2107) | 1 | -2.36 | 35 | -2.49 | 75.4 |
| ETF1 (GeneID 2107) | 2 | -2.65 | 29.1 | -3.57 | 83.4 |
| ETF1 (GeneID 2107) | 3 | -2.28 | 36.5 | -1.88 | 67 |
| JCADP1 (GeneID 729056) | 1 | -1.03 | 61.4 | 0.399 | 61.8 |
| JCADP1 (GeneID 729056) | 2 | 0.353 | 88.9 | 0.482 | 87.5 |
| JCADP1 (GeneID 729056) | 3 | 0.376 | 89.4 | 0.362 | 90.8 |
| PRR33 (GeneID 102724536) | 1 | 1.68 | 115 | 1.94 | 77.2 |
| PRR33 (GeneID 102724536) | 2 | -1.18 | 58.3 | -1.81 | 105 |
| PRR33 (GeneID 102724536) | 3 | 1.71 | 116 | 0.589 | 111 |
